From patent US20210283220A1, “ANTIBODY MOLECULE-DRUG CONJUGATES AND USES THEREOF” (priority 2017, published 2021)
≈ marks a conversion by molar mass, not a printed value.

System: C. albicans
Assay: Minimal inhibitory concentration (MIC) assay, broth microdilution
Conditions: C. albicans ATCC 90028; MIC control compound value

For `C[C@@H]1[C@H](O)[C@@H](C)/C=C/C=C/C=C/C=C/C=C/C=C/C=C/[C@H](O[C@@H]2O[C@H](C)[C@@H](O)[C@H](N)[C@@H]2O)C[C@@H]2O[C@](O)(C[C@@H](O)C[C@@H](O)[C@H](O)CC[C@@H](O)C[C@@H](O)CC(=O)O[C@H]1C)C[C@H](O)[C@H]2C(=O)O` [Amphotericin B], the MIC was 4.0 µg/mL (≈ 4.33 µM).
